Measurements taken from PMC11417407.
Results are given in words; binding and its absence hold for the method and conditions named. For part of these data: Binding seen in cells or lysates may run through a third protein.

By UniProt entry, the sequences of proteins in these tests, tags left out. Where a name states a change or a piece, a line headed by the entry shows the natural chain unless it says otherwise.
UniProt Q9UHI6: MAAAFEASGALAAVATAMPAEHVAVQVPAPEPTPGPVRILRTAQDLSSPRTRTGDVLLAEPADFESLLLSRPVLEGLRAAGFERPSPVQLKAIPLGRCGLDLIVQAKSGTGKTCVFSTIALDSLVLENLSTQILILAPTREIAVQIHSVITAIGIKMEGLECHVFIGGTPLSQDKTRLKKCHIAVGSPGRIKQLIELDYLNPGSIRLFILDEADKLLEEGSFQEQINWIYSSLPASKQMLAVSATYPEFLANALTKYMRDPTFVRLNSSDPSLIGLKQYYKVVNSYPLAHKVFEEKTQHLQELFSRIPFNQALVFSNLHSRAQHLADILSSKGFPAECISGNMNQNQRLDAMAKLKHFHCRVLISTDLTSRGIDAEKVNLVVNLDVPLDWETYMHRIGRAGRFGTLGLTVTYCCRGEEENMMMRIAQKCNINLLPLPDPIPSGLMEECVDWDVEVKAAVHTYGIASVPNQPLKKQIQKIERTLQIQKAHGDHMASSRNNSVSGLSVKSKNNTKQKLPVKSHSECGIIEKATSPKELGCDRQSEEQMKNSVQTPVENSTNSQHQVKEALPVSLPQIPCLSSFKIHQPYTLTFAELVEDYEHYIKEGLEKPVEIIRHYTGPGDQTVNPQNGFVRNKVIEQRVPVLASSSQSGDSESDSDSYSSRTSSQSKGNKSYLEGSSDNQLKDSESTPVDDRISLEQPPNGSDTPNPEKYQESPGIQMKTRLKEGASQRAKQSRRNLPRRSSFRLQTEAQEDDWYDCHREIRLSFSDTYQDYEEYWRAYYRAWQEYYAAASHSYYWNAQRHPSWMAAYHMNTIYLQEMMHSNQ
UniProt O14893: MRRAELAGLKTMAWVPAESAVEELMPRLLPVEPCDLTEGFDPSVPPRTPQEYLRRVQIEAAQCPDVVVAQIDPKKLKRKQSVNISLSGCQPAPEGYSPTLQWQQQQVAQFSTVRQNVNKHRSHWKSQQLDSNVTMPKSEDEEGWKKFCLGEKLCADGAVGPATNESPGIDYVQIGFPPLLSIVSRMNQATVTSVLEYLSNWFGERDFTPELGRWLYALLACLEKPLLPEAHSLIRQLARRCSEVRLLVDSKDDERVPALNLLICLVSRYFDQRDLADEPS
UniProt Q13838: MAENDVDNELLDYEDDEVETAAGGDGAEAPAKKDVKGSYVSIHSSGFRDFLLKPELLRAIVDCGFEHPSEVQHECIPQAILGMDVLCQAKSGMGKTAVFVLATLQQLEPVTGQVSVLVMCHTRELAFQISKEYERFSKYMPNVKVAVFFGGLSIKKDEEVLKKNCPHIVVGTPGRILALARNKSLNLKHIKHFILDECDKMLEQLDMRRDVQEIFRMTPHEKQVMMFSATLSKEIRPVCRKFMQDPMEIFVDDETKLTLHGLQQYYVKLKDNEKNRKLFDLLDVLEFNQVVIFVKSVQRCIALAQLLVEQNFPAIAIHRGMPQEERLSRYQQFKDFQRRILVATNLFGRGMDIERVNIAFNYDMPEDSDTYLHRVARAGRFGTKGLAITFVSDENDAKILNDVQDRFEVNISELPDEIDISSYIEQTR

What was measured:
GST-PHAX [1] = target: GST-PHAX (UniProt Q9H814); assay: pull-down; GST or GST-PHAX with HeLa nuclear extracts (HNEs), RNase A, with or without 0.5 mM ATP, 20 mM creatine phosphate, 2 mM MgCl2, 30°C 20 min; Glutathione Sepharose, washes in RSB100N; western blotting; only the target purified
GST-PHAX [2] = target: GST-PHAX (UniProt Q9H814); assay: pull-down; purified GST-PHAX and purified FLAG-helicase mixed in the presence of HNEs, 0.5 mM ATP (or without), 20 mM creatine phosphate, 2 mM MgCl2, RNase A, 30°C 20 min; Glutathione Sepharose; anti-FLAG western blotting; both purified

Substance | binding (GST-PHAX [1]) | binding (GST-PHAX [2])
GEMIN3/DDX20 (endogenous, HeLa nuclear extract) (from UniProt Q9UHI6 1-824) | no binding | 
GEMIN2 (endogenous, HeLa nuclear extract) (from UniProt O14893 1-280) | no binding | 
FLAG-UAP56 K95E mutant (from UniProt Q13838 1-428) (enzyme) |  | no binding
